Results deposited as PubChem BioAssay AID1259308 (NCATS, 2017)
Purpose: 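Genes whose loss raises luciferase production in HEK293 cells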 (primary screen). Cell system: human HEK293 embryonic kidney cells stably expressing firefly luciferase (HEK-CMV-Luc2-Hygro). Reagent: single siRNA against human genes, 0.8 pmol siRNA per well. Duration: 72 h. Measurement: 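Reporter luminescence and viable-cell signal on separate replicate plates, given as percent of non-targeting control and median/MAD z-scores, plus per-cell luciferase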. Reading the numbers: total luciferase, z-score and total luciferase, % of control: higher = more reporter protein produced. Hit rule: 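An siRNA counts as active if its total luciferase robust z-score exceeds 3; genes with two or more such siRNAs out of three were retested with fresh siRNAs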. Calls: active = raised luciferase; inactive = no rise.
This is an unselected part of about 59,000 reagents tested. About 1,510 of them (2.6%) count as active. 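Calls use total luciferase alone and ignore viability, so some active siRNAs may act by altering cell number.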 Unmarked entries are inactive. Reagents against one gene are numbered here. Not all columns of the deposit are shown.

Depletion of PPP5C #1 came out at: total luciferase, z-score -0.688; total luciferase, % of control 68.2.
PPP5C #2 scored total luciferase, z-score -0.63; total luciferase, % of control 69.3.
After knock-down of PPP5C #3, the screen gave total luciferase, z-score 4.8 (active); total luciferase, % of control 177.
After knock-down of EPHX3 #1 the results were total luciferase, z-score 1.79; total luciferase, % of control 117.
After knock-down of EPHX3 #2, the record shows total luciferase, z-score -0.146; total luciferase, % of control 79.
With knock-down of EPHX3 #3 the results were total luciferase, z-score 0.64; total luciferase, % of control 94.6.
For GNL1 #1, the entry reads total luciferase, z-score 0.215; total luciferase, % of control 86.2.
For GNL1 #2, the values are total luciferase, z-score -1.33; total luciferase, % of control 55.4.
For GNL1 #3, the entry reads total luciferase, z-score -1.13; total luciferase, % of control 59.4.
Knock-down of VGLL1 #1 resulted in: total luciferase, z-score -0.877; total luciferase, % of control 64.4.
Silencing of VGLL1 #2 gave: total luciferase, z-score -0.145; total luciferase, % of control 79.
With knock-down of VGLL1 #3, the screen gave total luciferase, z-score -0.549; total luciferase, % of control 71.
For GRIA4 #1, the entry reads total luciferase, z-score -0.354; total luciferase, % of control 74.8.
With knock-down of GRIA4 #2 the results were total luciferase, z-score 0.0691; total luciferase, % of control 83.3.
Depletion of GRIA4 #3 came out at: total luciferase, z-score 0.775; total luciferase, % of control 97.3.
For ZNF549 #1 the deposit lists total luciferase, z-score 0.731; total luciferase, % of control 96.4.
ZNF549 #2 gave total luciferase, z-score -0.15; total luciferase, % of control 78.9.
ZNF549 #3 scored total luciferase, z-score 4.87 (active); total luciferase, % of control 179.

Taken from above:
Under “total luciferase, z-score”, VGLL1 #3 is entered as -0.549
EPHX3 #3, total luciferase, % of control → 94.6
GNL1 #1, total luciferase, % of control → 86.2
Result for VGLL1 #2 under “total luciferase, z-score”: -0.145
Entry for PPP5C #2 under “total luciferase, % of control”: 69.3

Continued.
Depletion of RPL22 #1 resulted in: total luciferase, z-score -0.373; total luciferase, % of control 74.5.
Against RPL22 #2, the values are total luciferase, z-score 1.48; total luciferase, % of control 111.
Knock-down of RPL22 #3 gave: total luciferase, z-score -0.871; total luciferase, % of control 64.6.
Against SNCG #1, the entry reads total luciferase, z-score 0.0171; total luciferase, % of control 82.2.
For SNCG #2, the values are total luciferase, z-score -0.541; total luciferase, % of control 71.1.
With knock-down of SNCG #3, the record shows total luciferase, z-score 0.633; total luciferase, % of control 94.5.
Against GPHRA #1, the values are total luciferase, z-score -0.35; total luciferase, % of control 74.9.
GPHRA #2 gave total luciferase, z-score -1.15; total luciferase, % of control 58.9.
With knock-down of GPHRA #3, the screen gave total luciferase, z-score 2.28; total luciferase, % of control 127.
After knock-down of VSIG4 #1 the results were total luciferase, z-score -0.562; total luciferase, % of control 70.7.
After knock-down of VSIG4 #2, the screen gave total luciferase, z-score 2.01; total luciferase, % of control 122.
Depletion of VSIG4 #3 came out at: total luciferase, z-score 1.55; total luciferase, % of control 113.
After knock-down of OR51A4 #1, the record shows total luciferase, z-score 0.843; total luciferase, % of control 98.7.
Depletion of OR51A4 #2 came out at: total luciferase, z-score -1.17; total luciferase, % of control 58.6.
Silencing of OR51A4 #3 came out at: total luciferase, z-score -0.604; total luciferase, % of control 69.9.
